Results from article PMC11006888.
These are yes or no findings as the source states them, for the method shown. A result given as binding can be weak or reduced; the word gives no strength. For some of these results: Binding seen in cells or lysates may run through a third protein. For some of these results: Where a sequence is shown, tags or fusion partners need not be part of it. Each block holds one molecule with its values, some of them ahead of it.

Key:
[1] = target: T1, PAM68-YFP^N (Arabidopsis thaliana) (UniProt O49668); assay: split reporter; BiFC with YFP^N and YFP^C fusions cotransformed into Arabidopsis protoplasts; confocal microscopy
T1 sequence: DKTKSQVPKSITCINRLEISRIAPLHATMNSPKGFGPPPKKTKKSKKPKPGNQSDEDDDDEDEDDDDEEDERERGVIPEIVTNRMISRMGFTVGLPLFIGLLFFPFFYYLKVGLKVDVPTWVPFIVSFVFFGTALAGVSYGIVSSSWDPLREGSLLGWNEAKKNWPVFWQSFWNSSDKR

[2] = target: T2, SecY1-Cub (UniProt Q38885); assay: two-hybrid; split-ubiquitin yeast two-hybrid; baits with Cub-LexA-VP16, preys with NubG; yeast NMY32, growth on SD-leu-trp-his-ade for 2-4 days at 28 °C
T2 sequence: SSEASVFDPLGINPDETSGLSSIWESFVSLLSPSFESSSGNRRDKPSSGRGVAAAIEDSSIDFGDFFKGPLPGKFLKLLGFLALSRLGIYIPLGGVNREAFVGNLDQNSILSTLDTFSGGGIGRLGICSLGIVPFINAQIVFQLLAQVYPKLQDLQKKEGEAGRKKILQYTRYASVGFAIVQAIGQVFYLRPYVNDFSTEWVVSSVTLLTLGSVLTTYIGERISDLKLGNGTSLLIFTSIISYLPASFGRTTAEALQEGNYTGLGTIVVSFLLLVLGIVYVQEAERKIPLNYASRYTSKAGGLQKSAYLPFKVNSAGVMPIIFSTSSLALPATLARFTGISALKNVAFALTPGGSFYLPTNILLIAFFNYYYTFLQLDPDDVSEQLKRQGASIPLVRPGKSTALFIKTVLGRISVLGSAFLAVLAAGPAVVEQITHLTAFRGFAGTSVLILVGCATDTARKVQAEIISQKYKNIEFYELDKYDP

[3] = target: T3, Alb3-Cub (Arabidopsis thaliana) (UniProt Q8LBP4); assay: as above
T3 sequence: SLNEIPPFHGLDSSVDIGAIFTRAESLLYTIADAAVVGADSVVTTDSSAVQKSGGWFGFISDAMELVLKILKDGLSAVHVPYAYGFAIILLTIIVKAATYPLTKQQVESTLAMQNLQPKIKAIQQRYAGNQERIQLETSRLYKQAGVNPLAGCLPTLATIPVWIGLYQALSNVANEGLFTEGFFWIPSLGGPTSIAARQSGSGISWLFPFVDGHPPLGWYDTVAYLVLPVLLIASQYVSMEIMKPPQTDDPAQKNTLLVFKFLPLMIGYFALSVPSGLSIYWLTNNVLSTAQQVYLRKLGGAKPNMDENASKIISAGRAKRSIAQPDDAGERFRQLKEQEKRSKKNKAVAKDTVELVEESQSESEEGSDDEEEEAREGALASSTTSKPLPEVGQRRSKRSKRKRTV

[4] = target: T4, PAM68 (Photosynthesis Affected Mutant68) (Arabidopsis thaliana (endogenous in thylakoids)) (UniProt O49668); assay: co-IP; wild-type thylakoids solubilised with 1% dodecyl-β-D-maltoside in co-IP buffer (50 mM Tris-HCl pH 8.0, 100 mM NaCl, 1 mM EDTA, 0.1% Igepal CA-630), incubated overnight at 4 °C with FPB1, PAM68 or YCF4 antibody or preimmune serum coupled to CNBr-activated agarose; immunoblot
T4 sequence: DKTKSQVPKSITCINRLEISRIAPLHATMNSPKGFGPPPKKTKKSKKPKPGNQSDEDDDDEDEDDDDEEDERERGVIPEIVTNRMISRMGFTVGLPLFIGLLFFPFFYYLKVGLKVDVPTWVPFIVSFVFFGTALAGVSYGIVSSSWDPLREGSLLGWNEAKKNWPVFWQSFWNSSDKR

[5] = target: T4, PAM68 (Photosynthesis Affected Mutant68) (Arabidopsis thaliana (endogenous in thylakoids)); assay: cross-linking + co-IP; thylakoids crosslinked with 1.5 mM DSP for 2 h on ice, solubilised in RIPA buffer (1% Triton X-100, 1% sodium deoxycholate, 0.1% SDS), immunoprecipitated with antibodies coupled to CNBr-activated agarose; cross-links opened with β-mercaptoethanol; immunoblot
[6] = target: FPB1-YFP^N (Arabidopsis thaliana); assay: split reporter; BiFC with YFP^N and YFP^C fusions cotransformed into Arabidopsis protoplasts; confocal microscopy
[7] = target: FPB1 (Facilitator of PsbB biogenesis1) (Arabidopsis thaliana (endogenous in thylakoids)); assay: co-IP; wild-type thylakoids solubilised with 1% dodecyl-β-D-maltoside in co-IP buffer (50 mM Tris-HCl pH 8.0, 100 mM NaCl, 1 mM EDTA, 0.1% Igepal CA-630), incubated overnight at 4 °C with FPB1, PAM68 or YCF4 antibody or preimmune serum coupled to CNBr-activated agarose; immunoblot
[8] = target: FPB1 (Facilitator of PsbB biogenesis1) (Arabidopsis thaliana (endogenous in thylakoids)); assay: cross-linking + co-IP; thylakoids crosslinked with 1.5 mM DSP for 2 h on ice, solubilised in RIPA buffer (1% Triton X-100, 1% sodium deoxycholate, 0.1% SDS), immunoprecipitated with antibodies coupled to CNBr-activated agarose; cross-links opened with β-mercaptoethanol; immunoblot

- binding [1]: binds
Molecule: FPB1-YFP^C (Arabidopsis thaliana)

- binding [2]: binds
- binding [3]: binds
Molecule: NubG-FPB1 (Arabidopsis thaliana)

- binding [4]: binds weakly
- binding [5]: binds
Molecule: FPB1 (Facilitator of PsbB biogenesis1)

- binding [6]: binds
B1: LPA1-YFP^C (protein, UniProt Q9SRY4 93-453)
chain: DALVQFETALSLAPNPIESQAAYYNKACCHAYRGEGKKAVDCLRIALRDYNLKFATILNDPDLASFRALPEFKELQEEARLGGEDIGDNFRRDLKLISEVRAPFRGVRKFFYFAFAAAAGISMFFTVPRLVQAIRGGDGAPNLLETTGNAAINIGGIVVMVSLFLWENKKEEEQMVQITRDETLSRLPLRLSTNRVVELVQLRDTVRPVILAGKKETVTLAMQKADRFRTELLRRGVLLVPVVWGERKTPEIEKKGFGASSKAATSLPSIGEDFDTRAQSVVAQSKLKGEIRFKAETVSPGEWERWIRDQQISEGVNPGDDVYIILRLDGRVRRSGRGMPDWAEISKELPPMDDVLSKLER

- binding [6]: no binding
B2: RbcS-TP-YFP^C-SecY1 (protein, UniProt Q38885 68-551)
chain: SSEASVFDPLGINPDETSGLSSIWESFVSLLSPSFESSSGNRRDKPSSGRGVAAAIEDSSIDFGDFFKGPLPGKFLKLLGFLALSRLGIYIPLGGVNREAFVGNLDQNSILSTLDTFSGGGIGRLGICSLGIVPFINAQIVFQLLAQVYPKLQDLQKKEGEAGRKKILQYTRYASVGFAIVQAIGQVFYLRPYVNDFSTEWVVSSVTLLTLGSVLTTYIGERISDLKLGNGTSLLIFTSIISYLPASFGRTTAEALQEGNYTGLGTIVVSFLLLVLGIVYVQEAERKIPLNYASRYTSKAGGLQKSAYLPFKVNSAGVMPIIFSTSSLALPATLARFTGISALKNVAFALTPGGSFYLPTNILLIAFFNYYYTFLQLDPDDVSEQLKRQGASIPLVRPGKSTALFIKTVLGRISVLGSAFLAVLAAGPAVVEQITHLTAFRGFAGTSVLILVGCATDTARKVQAEIISQKYKNIEFYELDKYDP

- binding [7]: binds weakly
- binding [8]: binds
B3: PAM68 (Photosynthesis Affected Mutant68) (protein, UniProt O49668 36-214)
chain: DKTKSQVPKSITCINRLEISRIAPLHATMNSPKGFGPPPKKTKKSKKPKPGNQSDEDDDDEDEDDDDEEDERERGVIPEIVTNRMISRMGFTVGLPLFIGLLFFPFFYYLKVGLKVDVPTWVPFIVSFVFFGTALAGVSYGIVSSSWDPLREGSLLGWNEAKKNWPVFWQSFWNSSDKR

- binding [6]: binds
B4: PAM68-YFP^C (protein, UniProt O49668 36-214)
chain: DKTKSQVPKSITCINRLEISRIAPLHATMNSPKGFGPPPKKTKKSKKPKPGNQSDEDDDDEDEDDDDEEDERERGVIPEIVTNRMISRMGFTVGLPLFIGLLFFPFFYYLKVGLKVDVPTWVPFIVSFVFFGTALAGVSYGIVSSSWDPLREGSLLGWNEAKKNWPVFWQSFWNSSDKR

- binding [6]: binds
B5: LPA2-YFP^C (protein, UniProt F4KDA6 47-185)
chain: SKNSSSSGVGFGSPASSSSPAKKLSAATSGNKKGKGKREVNRRAPVEKPVFMSEEGAAKAEEQRQNENAFLLTWLGLGIVILIEGIILAASGFLPEELDKLFVKYVYPVFTPSVVLFVAGTTAYGVLKYIQNEKMKGQE

- binding [6]: binds
B6: cpSRP54-YFP^C (protein, UniProt P37107 76-564)
chain: EMFGQLTGGLEAAWSKLKGEEVLTKDNIAEPMRDIRRALLEADVSLPVVRRFVQSVSDQAVGMGVIRGVKPDQQLVKIVHDELVKLMGGEVSELQFAKSGPTVILLAGLQGVGKTTVCAKLACYLKKQGKSCMLIAGDVYRPAAIDQLVILGEQVGVPVYTAGTDVKPADIAKQGLKEAKKNNVDVVIMDTAGRLQIDKGMMDELKDVKKFLNPTEVLLVVDAMTGQEAAALVTTFNVEIGITGAILTKLDGDSRGGAALSVKEVSGKPIKLVGRGERMEDLEPFYPDRMAGRILGMGDVLSFVEKATEVMRQEDAEDLQKKIMSAKFDFNDFLKQTRAVAKMGSMTRVLGMIPGMGKVSPAQIREAEKNLLVMEAMIEVMTPEERERPELLAESPERRKRIAKDSGKTEQQVSALVAQIFQMRVKMKNLMGVMEGGSIPALSGLEDALKAEQKAPPGTARRKRKADSRKKFVESASSKPGPRGFGSGN

- binding [6]: binds
B7: FtsY-YFP^C (protein, UniProt O80842 41-366)
chain: CSAGPSGFFTRLGRLIKEKAKSDVEKVFSGFSKTRENLAVIDELLLFWNLAETDRVLDELEEALLVSDFGPKITVRIVERLREDIMSGKLKSGSEIKDALKESVLEMLAKKNSKTELQLGFRKPAVIMIVGVNGGGKTTSLGKLAHRLKNEGTKVLMAAGDTFRAAASDQLEIWAERTGCEIVVAEGDKAKAATVLSKAVKRGKEEGYDVVLCDTSGRLHTNYSLMEELIACKKAVGKIVSGAPNEILLVLDGNTGLNMLPQAREFNEVVGITGLILTKLDGSARGGCVVSVVEELGIPVKFIGVGEAVEDLQPFDPEAFVNAIFS

- binding [7]: binds
- binding [8]: binds
B8: Alb3 (protein, UniProt Q8LBP4 57-462)
chain: SLNEIPPFHGLDSSVDIGAIFTRAESLLYTIADAAVVGADSVVTTDSSAVQKSGGWFGFISDAMELVLKILKDGLSAVHVPYAYGFAIILLTIIVKAATYPLTKQQVESTLAMQNLQPKIKAIQQRYAGNQERIQLETSRLYKQAGVNPLAGCLPTLATIPVWIGLYQALSNVANEGLFTEGFFWIPSLGGPTSIAARQSGSGISWLFPFVDGHPPLGWYDTVAYLVLPVLLIASQYVSMEIMKPPQTDDPAQKNTLLVFKFLPLMIGYFALSVPSGLSIYWLTNNVLSTAQQVYLRKLGGAKPNMDENASKIISAGRAKRSIAQPDDAGERFRQLKEQEKRSKKNKAVAKDTVELVEESQSESEEGSDDEEEEAREGALASSTTSKPLPEVGQRRSKRSKRKRTV

- binding [6]: binds
B9: Alb3-YFP^C (protein, UniProt Q8LBP4 57-462)
chain: SLNEIPPFHGLDSSVDIGAIFTRAESLLYTIADAAVVGADSVVTTDSSAVQKSGGWFGFISDAMELVLKILKDGLSAVHVPYAYGFAIILLTIIVKAATYPLTKQQVESTLAMQNLQPKIKAIQQRYAGNQERIQLETSRLYKQAGVNPLAGCLPTLATIPVWIGLYQALSNVANEGLFTEGFFWIPSLGGPTSIAARQSGSGISWLFPFVDGHPPLGWYDTVAYLVLPVLLIASQYVSMEIMKPPQTDDPAQKNTLLVFKFLPLMIGYFALSVPSGLSIYWLTNNVLSTAQQVYLRKLGGAKPNMDENASKIISAGRAKRSIAQPDDAGERFRQLKEQEKRSKKNKAVAKDTVELVEESQSESEEGSDDEEEEAREGALASSTTSKPLPEVGQRRSKRSKRKRTV
